Laboratory results: PubChem BioAssay AID2551 (National Center for Advancing Translational Sciences (NCATS), 2010)
In all, about 310,000 compounds went through this assay and about 17,000 (5.5%) were called active. This list was built around the results that the source calls inconclusive (neither active nor inactive); the mix of calls is not that of the screen. Calls follow the shape of the dose curve; as a rule, active = well fitted inhibition curve with a large enough effect; inconclusive = small, poorly fitted or top-dose-only effect, or effect the other way; inactive = no such curve, though single readings can be large or run the other way. Potencies of inconclusive entries are doubtful fits and often do not repeat.

Amino acid sequences for entries named in this document (tags omitted). A change or cut given only in a name is not applied to a line headed by its entry.
UniProt P51450: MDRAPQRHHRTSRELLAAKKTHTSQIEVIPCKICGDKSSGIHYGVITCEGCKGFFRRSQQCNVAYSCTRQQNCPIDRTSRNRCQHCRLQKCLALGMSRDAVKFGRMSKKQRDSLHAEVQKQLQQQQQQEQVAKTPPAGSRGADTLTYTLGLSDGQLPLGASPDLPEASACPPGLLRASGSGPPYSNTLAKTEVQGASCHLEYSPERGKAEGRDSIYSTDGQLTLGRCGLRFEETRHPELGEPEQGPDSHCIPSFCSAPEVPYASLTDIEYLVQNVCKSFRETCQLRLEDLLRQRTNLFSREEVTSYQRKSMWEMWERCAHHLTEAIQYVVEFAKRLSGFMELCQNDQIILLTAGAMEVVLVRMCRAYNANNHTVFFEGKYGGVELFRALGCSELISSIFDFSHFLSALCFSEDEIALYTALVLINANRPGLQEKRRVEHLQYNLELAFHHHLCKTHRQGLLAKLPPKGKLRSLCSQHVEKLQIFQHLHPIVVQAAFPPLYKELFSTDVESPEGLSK

What follows are compounds tested against Nuclear receptor ROR-gamma (Mus musculus) (UniProt P51450) (assay: qHTS for inhibitors of ROR gamma transcriptional activity). Conditions: Drosophila S2 Gal4-RORgamma UAS-luciferase reporter, 20 h; series mostly up to 53.6 µM.
Summary of the method: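 ROR gamma transcriptional activity was tracked as Gal4-UAS luciferase output in stably transfected Drosophila Schneider cells, with compound added 1 hr before 700 uM copper sulfate induction and a 20 hr ambient-temperature incubation.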
Also: nearly all actives have a fitted effect of over 60% in size.
Potency is read from the fitted curve at half-maximal effect.

Row | Structure (SMILES) | Potency
1 | CCCCSc1nc2sc3c(c2c(=O)n1-c1ccc(C)cc1)CCN(C)C3 | inconclusive: 35.5 µM [inhibitor, single point]
2 | COc1ccc(CCNC2=C(Cl)C(=O)N(Cc3ccccc3)C2=O)cc1OC | inconclusive: 6.31 µM [activator, single point]
3 | CCOc1ccc(S(=O)(=O)Nc2ccccc2C(=O)NCc2ccco2)cc1 | inconclusive: 14.1 µM [inhibitor, single point]
4 | C=CCNC(=S)N/N=C(\C)c1ccccn1 | active: 0.0282 µM
5 | Cc1ccccc1NCC(=O)N/N=C/c1c[nH]c2ccccc12 | inconclusive: 22.4 µM [inhibitor, single point]
6 | O=c1c(-c2cc(F)cc(F)c2)nc2cnc(N3CCNCC3)nc2n1Cc1ccc(F)cc1 | active: 3.16 µM
7 | CCc1nc(N=C(N)N)nc2ccccc12 | inconclusive: 3.16 µM [inhibitor, single point]
8 | CS(=O)(=O)N(CC(=O)Nc1ccc2c(c1)OCCO2)c1ccc2c(c1)OCO2 | inconclusive: 6.31 µM [activator, single point]
9 | COc1cc(NC(=S)NC(=O)CC(C)C)ccc1NC(=O)c1cc2ccccc2o1 | inconclusive: 22.4 µM [inhibitor, single point]
10 | O=C(NNC(=S)NCCc1ccccc1)c1ccc(Br)s1 | inconclusive: 2.24 µM [inhibitor, full curve, poor fit]
11 | COCCCNC(=O)CN(c1cccc(Cl)c1C)S(C)(=O)=O | inconclusive: 3.55 µM [activator, single point]
12 | CC(Cc1ccccc1)C(=O)NCCc1c[nH]c2ccccc12 (stereo unspecified) | inconclusive: 11.2 µM [activator, partial curve]
13 | CCOc1ccc(S(=O)(=O)NCCCN2CCOCC2)c2ccccc12 | inactive
14 | O=C(CCCCn1c(=O)c2ccccc2n(CC(=O)NC2CCCC2)c1=O)NCc1ccco1 | inactive
15 | O=C(/C=C/c1ccc2c(c1)OCO2)c1ccc[nH]1 | inconclusive: 12.6 µM [inhibitor, single point]
16 | O=C(Nc1ccccc1)N1CCC(c2ccccc2)C1 (stereo unspecified) | inactive
17 | CCOc1ccc(Br)cc1S(=O)(=O)Nc1ccc(NC(=O)c2ccccc2C)cc1 | inconclusive: 35.5 µM [activator, single point]
18 | CC(=O)Nc1ccc(S(=O)(=O)N2CCN=C2SCc2cccc(C)c2)cc1 | inconclusive: 22.4 µM [activator, single point]
19 | CC(=O)c1cccc(NC(=O)COC(=O)c2ccc(S(C)(=O)=O)c([N+](=O)[O-])c2)c1 | inconclusive: 11.2 µM [inhibitor, partial curve, poor fit]
20 | Cc1cccc(NC(=O)C2CCN(S(=O)(=O)c3c(C)nn(C)c3C)CC2)n1 | inconclusive: 20 µM [activator, single point]
21 | CCCCN(C(=S)NC(=O)c1ccccc1)c1c(N)n(Cc2ccccc2)c(=O)[nH]c1=O | inconclusive: 35.5 µM [inhibitor, single point]
22 | COc1cccc(C(=O)NCCSc2ccc(Br)cc2)c1 | inconclusive: 35.5 µM [activator, single point]
23 | Cc1ccc(S(=O)(=O)NCC(=O)NCC(=O)NC(C)c2ccccc2Br)cc1C (stereo unspecified) | inactive
24 | CC(=O)N1c2ccc(S(=O)(=O)N3CCC(C(=O)Nc4cccc(C)n4)CC3)cc2CC1C (stereo unspecified) | inconclusive: 14.1 µM [activator, single point]

Pulled by structure from the list above (four):
Row | Structure (SMILES) | Potency
24 | CC(=O)N1c2ccc(S(=O)(=O)N3CCC(C(=O)Nc4cccc(C)n4)CC3)cc2CC1C (stereo unspecified) | inconclusive: 14.1 µM [activator, single point]
8 | CS(=O)(=O)N(CC(=O)Nc1ccc2c(c1)OCCO2)c1ccc2c(c1)OCO2 | inconclusive: 6.31 µM [activator, single point]
17 | CCOc1ccc(Br)cc1S(=O)(=O)Nc1ccc(NC(=O)c2ccccc2C)cc1 | inconclusive: 35.5 µM [activator, single point]
1 | CCCCSc1nc2sc3c(c2c(=O)n1-c1ccc(C)cc1)CCN(C)C3 | inconclusive: 35.5 µM [inhibitor, single point]

More results follow.

Row | Structure (SMILES) | Potency
25 | COC(=O)c1c(C)[nH]c(C)c1-c1ccccc1Cl | inconclusive: 17.8 µM [activator, partial curve]
26 | O=C(C(=O)N1CCN(c2ccc([N+](=O)[O-])cc2)CC1)c1cn(CC(=O)N2CCOCC2)c2ccccc12 | inconclusive: 35.5 µM [activator, single point]
27 | Cc1ccccc1C(=O)Nc1ccc2c(c1)CCCN2C(=O)c1cccs1 | inconclusive: 15.8 µM [activator, single point]
28 | COC(=O)c1cc2occc2n1Cc1cccc(C)c1 | inconclusive: 15.8 µM [activator, single point]
29 | CC(C)(C)c1cc(C(C)(C)C)cc(S(=O)(=O)CCc2ccccn2)c1 | active: 11.2 µM
30 | Cc1cccc(OCCOC(=O)c2c(-c3ccccc3)noc2C)c1 | inconclusive: 8.91 µM [activator, partial curve]
31 | O=C(NC(=S)N1CCCCC1c1cccnc1)c1ccc(F)cc1 (stereo unspecified) | active: 0.891 µM
32 | CCCCCCCCCCn1ccc(=N)cc1 | active: 7.94 µM
33 | C/C=C1\COC(C(=O)NCc2ccccn2)(C(F)(F)F)C=C1C=C(C)C (stereo unspecified) | inconclusive: 17.8 µM [inhibitor, single point]
34 | C/C(=N\Nc1nc(C)cc(-c2ccccc2)n1)c1ccc(C)o1 | active: 5.01 µM
35 | CCOc1ccc(OCCOc2ccc(/C=C/C(=O)O)cc2OCC)cc1 | inconclusive: 17.8 µM [activator, single point]
36 | Cc1cc(O)ccc1NC(=O)c1ccccc1 | inactive
37 | CCOC(=O)c1cc2c(=O)n3ccccc3nc2n(CC2CCCO2)c1=NC(C)=O (stereo unspecified) | inconclusive: 35.5 µM [activator, single point]
38 | O=C(NCCc1ccccc1)c1ccc2c(c1)OCO2 | active: 2.82 µM
39 | CCOC(=O)CSc1nnc(-c2ccc(S(=O)(=O)N3CCOCC3)cc2)n1-c1ccccc1 | inconclusive: 3.55 µM [activator, partial curve]
40 | O=C(CN1C(=O)/C(=C2\SC(=S)N(C3CCS(=O)(=O)C3)C2=O)c2ccccc21)Nc1ccccc1 (stereo unspecified) | active: 0.891 µM
41 | CN1CCN(c2ccc(NC(=S)NC(=O)c3cccc4c(Cl)cccc34)cc2)CC1 | inconclusive: 3.98 µM [inhibitor, full curve, poor fit]
42 | CCC(C)c1ccc(NC(=S)NN2CCOCC2)cc1 (stereo unspecified) | active: 2.24 µM
43 | C=C(C)CNC(=S)NNC(=O)c1ccncc1 | inconclusive: 1.12 µM [inhibitor, full curve]
44 | Cc1ccccc1S(=O)(=O)Nc1ncc(C(F)(F)F)cc1Cl | inconclusive: 31.6 µM [activator, single point]
45 | O=c1c2ccccc2nc(-c2ccc(F)cc2)n1NCc1ccccc1O | inconclusive: 35.5 µM [activator, single point]
46 | CC1CCN(S(=O)(=O)c2ccc(NC(=O)Cc3ccccc3)cc2)CC1 | inconclusive: 14.1 µM [activator, single point]
47 | CCN1CCCc2cc(CN(CCN3CCOCC3)C(=S)Nc3cccc(Cl)c3)ccc21 | active: 7.08 µM
48 | COc1ccc(CNC(=O)c2ccc3c(c2)NC(=O)C(C)S3)cc1 (stereo unspecified) | inactive

Row | Structure (SMILES) | Potency
49 | O=C(O)CN1CCN(Cc2ccccc2F)C1=O | inactive
50 | O=C(Nc1cccc(Br)c1)c1ccc(CN2CCc3ccccc3C2)cc1 | inconclusive: 35.5 µM [activator, single point]
51 | CCOC(=O)c1cc(CC)sc1NC(=O)C1CC(=O)NN1Cc1ccccc1 (stereo unspecified) | inconclusive: 35.5 µM [activator, single point]
52 | Cc1ccc(NC(=O)CS(=O)CC(=O)Nc2ccc(N3CCOCC3)cc2)cc1Cl (stereo unspecified) | inactive
53 | COc1ccc(C)cc1NC(=S)NNC(=O)c1c(Br)cnn1C | active: 2 µM
54 | COc1ccc(/C=N/NC(=O)c2cccc(NC(=O)c3ccccc3)c2)c(C(=O)O)c1OC | inconclusive: 7.08 µM [activator, partial curve]
55 | CCCN1Cc2cccc(C(=O)Nc3ccc(-c4nc5ccccc5[nH]4)cc3)c2C1=O | inconclusive: 0.562 µM [activator, single point]
56 | CCCN(CCC)CCCNc1ccc2nnc(-c3ccc(F)cc3)n2n1 | inconclusive: 0.141 µM [activator, full curve, poor fit]
57 | Clc1ccc2oc(SCc3cccnc3)nc2c1 | inactive
58 | Cc1ccc(O)c(C(=O)c2cc(C#N)c(=O)n(Cc3ccccc3)c2)c1 | inconclusive: 10 µM [activator, partial curve]
59 | COc1cc(-n2c(C)nc3cc(C(=O)NCC4CCCO4)ccc32)cc(OC)c1OC (stereo unspecified) | inactive
60 | Cc1ccc(C(=O)N/C(=C\c2ccccc2)C(=O)NCc2cccnc2)cc1 | inconclusive: 6.31 µM [inhibitor, single point]
61 | COc1ccc(OC)c(C2=NOC(C(=O)NCCN3CCOCC3)C2)c1 (stereo unspecified) | inactive
62 | CN(C)CCCNC(=O)Cc1ccc(Br)cc1 | inconclusive: 35.5 µM [activator, single point]
63 | CCCC(C(=O)NC(C)(C)C)N(Cc1ccc(F)cc1)C(=O)c1snc(C(N)=O)c1N (stereo unspecified) | inactive
64 | C=CCN1C(=O)/C(=c2\sc3nc(=O)c(Cc4ccccc4Cl)nn3c2=O)c2ccccc21 | active: 12.6 µM
65 | COc1ccc(-n2nc3cc(C)c(NC(=O)C(C)C)cc3n2)cc1 | inconclusive: 0.005 µM [activator, full curve]
66 | O=C(CN1C(=O)/C(=C\c2cccc(Br)c2)Oc2ccccc21)NCCCN1CCOCC1 | inconclusive: 20 µM [inhibitor, single point]
67 | OC(c1nc2ccccc2[nH]1)C(O)C(O)C(O)c1nc2ccccc2[nH]1 (stereo unspecified) | inactive
68 | Cn1c(SCC(N)=O)nnc1-c1ccc(C(C)(C)C)cc1 | inconclusive: 12.6 µM [inhibitor, single point]
69 | COc1ccccc1C(=O)NC(=S)/C=C1/N(C)c2ccccc2C1(C)C | inactive
70 | O=C(CSc1nnc(-c2ccc3c(c2)OCO3)o1)Nc1ncc(Cl)cc1Cl | active: 0.794 µM
71 | O=C1CC(N2CCC(c3nc4ccccc4[nH]3)CC2)C(=O)N1c1ccccc1F (stereo unspecified) | inactive

From no. 64 as far as 65, as listed above:
Row | Structure (SMILES) | Potency
64 | C=CCN1C(=O)/C(=c2\sc3nc(=O)c(Cc4ccccc4Cl)nn3c2=O)c2ccccc21 | active: 12.6 µM
65 | COc1ccc(-n2nc3cc(C)c(NC(=O)C(C)C)cc3n2)cc1 | inconclusive: 0.005 µM [activator, full curve]
